We go through 38 molecules from PubChem BioAssay AID493014 (National Center for Advancing Translational Sciences (NCATS), 2011).

SMILES strings stand for the structures. The list shows a part of the results. Shown are side measurements of this screen, not its main read-out; they come without a call. Compounds called inactive in the main read-out are mostly missing here. Potencies come from curve fits of mixed quality, noted in brackets.

Usually AC50 stands for the concentration at which the activity in the assay is half-maximal.

This assay is described as follows: qHTS Assay to Find Inhibitors of Chronic Active B-Cell Receptor Signaling. To be noted: ABC-DLBCL IkBa-CBG/CBR reporter, luminescence ratio (green luciferase fused to IkBa over red control in TMD8 lymphoma cells), 4 h. The procedure, abridged:
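Cell line TMD8 (human ABC DLBCL), stably expressing tet-inducible CBG68-IkBa fusion and CBR; IMDM/0.5% FBS; cpd up to 46 uM; dox induction, 4 h, 37C/5% CO2; dual luminescence; green/red ratio; MG132 control.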
On the technique in general: qHTS replaces the single test concentration by a dilution series.

[1] abbreviates: measured here: CBR red luminescence, cell number.
Setting [2] is: measured here: IkBa-CBG green luminescence.

For the molecule `CN(C)c1cc2c(c(N(C)C)c1)C(=O)c1ccccc1C2=O`, the AC50 under setting [1] is 2.82 µM [falling, partial curve, poor fit].
Take `C/C(=N/NC(=O)c1ccccn1)c1c[nH]c2ccccc12`: the AC50 under setting [1] was 22.4 µM [falling, single point].
On to `COC(=O)C(NS(=O)(=O)c1cccc(S(=O)(=O)NC(C(=O)OC)c2ccccc2)c1)c1ccccc1` (stereo not given), for which, under setting [1], the AC50 is 10 µM [falling, partial curve, poor fit].
The same measure, in the same setting: then `O=C(Nc1sc2c(c1C(=O)O)CCCCC2)c1ccccc1F`, with 0.0355 µM [falling, full curve]; and `CC1(C)CC(=O)c2cc(N=C/C(C(=O)c3ccccc3)=C(\O)c3ccccc3)c(=O)oc2C1`, with 11.2 µM [rising, partial curve]; and `COC(CNC(=O)C(=O)Nc1ccc2c(c1)N(S(=O)(=O)c1cccs1)CCC2)OC`, with 8.2 µM [rising, partial curve, poor fit].
Still for that read-out and setting: then `O=C(COC(=O)c1c(F)cccc1Cl)NCC1CCCCC1`, with 0.231 µM [rising, full curve]; and `COc1ccc(-c2noc(N3CCCC(C(=O)Nc4ccccc4F)C3)n2)cc1` (stereo not given), with 1.12 µM [rising, full curve, poor fit]; and `CN(C)C(=O)CSc1n[nH]c(-c2ccco2)n1`, with 3.55 µM [falling, full curve, poor fit].
For the molecule `COC(=O)Nc1nc2ccc(Sc3ccccc3)cc2[nH]1`, the AC50 was 2.59 µM [rising, full curve] under setting [1] and 2.91 µM [falling, full curve] under setting [2].
For the molecule `Oc1ccccc1N=Nc1ccccc1O`, the AC50 under setting [2] was 0.631 µM [falling, partial curve, poor fit].
In the case of `C[C@]12c3[nH]c4cc(-c5ccco5)ccc4c3CCN1C(=O)[C@@H](CC(=O)NCC13CC4CC(CC(C4)C1)C3)C[C@@H]2C(=O)N1CCOCC1`, under setting [1], the AC50 was 16.4 µM [falling, partial curve].
The same measure, in the same setting: then `O=[N+]([O-])c1cc(NS(=O)(=O)c2ccc(Cl)nc2)ccc1Cl`, with 23.1 µM [falling, partial curve, poor fit].
For the molecule `O=[N+]([O-])c1cccc(S(=O)(=O)c2cccc([N+](=O)[O-])c2)c1`, the AC50 under setting [1] was 11.2 µM [falling, partial curve].
For `COc1ccc(-n2c(-c3ccc(F)cc3)cnc2SCC(=O)NCc2ccco2)cc1`, the concentration at half-maximal activity (AC50) under setting [1] was 0.164 µM [rising, full curve, poor fit].
In the case of `COc1ccccc1NC(=O)c1cnc(Nc2ccccc2OC)c2ccccc12`, the AC50 is 20.6 µM [falling, partial curve] under setting [1] and 23.1 µM [falling, single point] under setting [2].
For the molecule `COc1ccc(C(=O)/C=C/C(=O)N(CC(=O)NC2CCCCC2)Cc2ccccc2)c(O)c1`, the AC50 under setting [1] was 3.98 µM [falling, partial curve, poor fit].
Same read-out and setting: then `COc1cc(/C=N/NC(=S)Nc2cccc(S(=O)(=O)N(C)C)c2)ccc1O`, with 4.11 µM [falling, full curve, poor fit].
The same measure, in the same setting: the value for `O=C1C=C(c2ccc(-c3ccccc3)cc2)C[C@@H](c2ccc(F)cc2)C1` was 6.51 µM [rising, partial curve, poor fit]; that for `Cc1cccc(NC(=S)NNC(=O)c2ccc3c(c2)OCO3)c1` was 14.6 µM [falling, partial curve, poor fit].
Regarding `COc1cc2c(cc1OC)-c1cc(Nc3ccc(N(C)C)cc3)nc(=O)n1CC2`, the AC50 under setting [2] is 11.2 µM [falling, partial curve].
For the molecule `O=C(CCC(=O)N(CC(=O)NC1CCCC1)c1ccccc1F)Nc1nccs1`, the half-maximal activity concentration (AC50) under setting [1] was 28.2 µM [falling, single point].
The same measure, in the same setting: then `COc1ccc(C(=S)N2CCOCC2)cc1OC(=O)c1cc([N+](=O)[O-])c(C)c([N+](=O)[O-])c1`, with 29.1 µM [rising, single point].
Same read-out and setting: then `O=C(NC(=S)NNC(=O)c1ccccc1[N+](=O)[O-])c1ccccc1`, with 20.6 µM [falling, partial curve].
`CCOC(=O)C(NC(=O)c1cccc(Cl)c1)(Nc1sc2c(c1C(N)=O)CCC2)C(F)(F)F` (stereo not given): the AC50 under setting [2] is 18.4 µM [falling, single point].
Take `CCOC(=O)C1CCCN(c2ccc(NC(=O)c3snc4c(=O)[nH]c(C)nc34)cc2)C1` (stereo not given): under setting [1], the concentration at half-maximal activity (AC50) was 0.794 µM [falling, partial curve, poor fit].
Still for that read-out and setting: the value for `COc1ccccc1NC(=S)N(Cc1ccco1)Cc1cc2ccc(C)c(C)c2[nH]c1=O` was 18.4 µM [rising, partial curve].
Same read-out and setting: the value for `COc1ccc(C(=O)CSc2nnc(Cn3nnc4ccccc43)n2C)cc1` was 20.6 µM [rising, partial curve, poor fit]; that for `Cc1cc2cc(C#N)c(SCC(=O)Nc3nonc3C)nc2cc1C` was 0.112 µM [rising, full curve, poor fit].
As to `CCCN1CCN(CCCNC(=O)CN2C(=O)COc3ccccc32)CC1`, the AC50 under setting [1] was 32.6 µM [falling, single point].
Regarding `CC1CCc2c(sc(/N=C/N(C)C)c2C#N)C1` (stereo not given), under setting [2], the AC50 was 35.5 µM [falling, single point].
On to `C=CCn1c2ccccc2c(=O)c2cc(C#CC3(O)CCCCC3)ccc21`, for which the AC50 under setting [1] is 3.98 µM [falling, full curve, poor fit].
For `CCOC(=O)C(C)n1nc(C)c2sc3ccccc3c2c1=O` (stereo not given), the AC50 under setting [1] was 3.55 µM [rising, single point].
With `Cc1ccc(Cn2ncc3c(NCCCN(C)C)ncnc32)cc1`, under setting [1], the AC50 was 2.51 µM [falling, single point].
Turning to `CCOC(=O)C1=C(C)NC(=O)NC1c1cc(Br)c(O)c(OC)c1` (stereo not given), the AC50 under setting [1] was 29.1 µM [rising, single point].
On the same count and under the same terms, the value for `COc1ccc(C)cc1N(CC(=O)NC1CCCC1)C(=O)CCC(=O)Nc1nc(C)cs1` was 11.2 µM [falling, partial curve].
The same measure, in the same setting: the value for `C[C@H]1COC(=O)[C@H](CC(=O)OC(C)(C)C)C/C=C\C[C@@H](CC(=O)N[C@@H](CO)Cc2ccccc2)C(=O)N1` was 0.092 µM [rising, full curve, poor fit].
Still for that read-out and setting: the value for `COc1ccc(CNC(=O)CN(Cc2ccccc2Cl)C(=O)c2csnn2)cc1` was 14.1 µM [rising, single point].
